Laboratory results published in publication PMC10697842.

By UniProt entry, the sequences of proteins in these tests, tags left out.
UniProt P0AE72: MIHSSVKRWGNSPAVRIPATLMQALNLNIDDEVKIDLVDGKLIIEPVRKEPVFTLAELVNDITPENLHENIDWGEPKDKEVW

Target: FLAG-MazE (E. coli) (UniProt P0AE72)
Test: affinity purification with mass spectrometry; lysate of E. coli producing MazF(E24A) and a FLAG-tagged bait; anti-FLAG M2 magnetic beads, 1 h at 4 °C; washed three times with 25 mM Tris-HCl, 150 mM NaCl, 1 mM EDTA, 5% glycerol (no detergent); on-bead trypsin digestion, LC-MS/MS, spectral counts

Question: With “MazF(E24A) (from UniProt P0AE70 1-111) (enzyme)” as the substance, how does the binding read?
Answer: binds

No constants are given. Whether binding was seen depends on the method and setting. Binding seen in cells or lysates may run through a third protein. A yes stands for co-enrichment or nearness to the bait. Other partners may have been found.
